Results deposited as PubChem BioAssay AID1259254 (NCATS, 2017)
Screen: 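Gene knock-downs that lead to re-replication, shown by excess G2 DNA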 (primary screen). System: human HCT116 colorectal cancer cells. Knock-down reagent: single siRNA against human genes. Timing: 3 days. Measurement: 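Nuclei stained with Hoechst and imaged; cell-cycle phase assigned by DNA content; G2 share scaled per plate, non-targeting siRNA 0%, GMNN siRNA 100%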. Direction: G2 robust z-score: higher = more G2 cells, more excess DNA replication. Rule for the call: 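An siRNA counts as active if its G2 robust z-score lies at least 5 MADs above the screen median; here such calls match roughly 38% of GMNN control or more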.
This is a random part of about 59,000 reagents tested. About 1,550 of them (2.6%) were called active. 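G2 share is only a proxy for re-replication; each gene was hit by three separate siRNAs, and active genes were retested.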 Unmarked entries are inactive. The numbers tell different reagents against one gene apart. Not all columns of the deposit are shown. The record does not give: the amount of reagent.

gene symbol | siRNA no. | G2 robust z-score
SHISA3 | 1 | -1.17
SHISA3 | 2 | -1.08
SHISA3 | 3 | -0.354
GPR87 | 1 | -1.31
GPR87 | 2 | -0.75
GPR87 | 3 | -0.277
ZC3H10 | 1 | 0.4
ZC3H10 | 2 | -0.736
ZC3H10 | 3 | -0.183
MTUS1 | 1 | 0.859
MTUS1 | 2 | -0.478
MTUS1 | 3 | 0.444
ALX1 | 1 | 5.41 (active)
ALX1 | 2 | -0.467
ALX1 | 3 | -0.792
VSTM2A | 1 | 0.0378
VSTM2A | 2 | 0.0203
VSTM2A | 3 | 1.06
POU2F1 | 1 | -0.0425
POU2F1 | 2 | 1.12
POU2F1 | 3 | 0.0721
PKP2 | 1 | -0.471
PKP2 | 2 | -0.956
PKP2 | 3 | -0.734
LOC344382 | 1 | 1.17
LOC344382 | 2 | 0.456
LOC344382 | 3 | -0.0467
FAM186B | 1 | 1.24
FAM186B | 2 | -1.1
FAM186B | 3 | -0.762

Individual results from the entries so far.
Result for POU2F1 #3 in “G2 robust z-score”: 0.0721
Entry for PKP2 #3 in “G2 robust z-score”: -0.734
Under “G2 robust z-score”, GPR87 #2 shows -0.75
SHISA3 #3, G2 robust z-score → -0.354
FAM186B #2, G2 robust z-score = -1.1
MTUS1 #3, G2 robust z-score → 0.444

Continued.
gene symbol | siRNA no. | G2 robust z-score
LOC642620 (retired record) | 1 | -0.669
LOC642620 (retired record) | 2 | 2.57
LOC642620 (retired record) | 3 | -0.276
LOC642620 (retired record) | 4 | 2.06
LOC642620 (retired record) | 5 | 0.983
LOC642620 (retired record) | 6 | -0.526
OR2J2 | 1 | 4.8
OR2J2 | 2 | -0.264
OR2J2 | 3 | -0.352
PTER | 1 | -0.114
PTER | 2 | -0.672
PTER | 3 | 0.73
SCGB3A1 | 1 | 0.758
SCGB3A1 | 2 | 1.66
SCGB3A1 | 3 | 0.469
PRSS48 | 1 | -0.526
PRSS48 | 2 | -1.31
PRSS48 | 3 | -0.874
FBXL6 | 1 | 0.0355
FBXL6 | 2 | 2.8
FBXL6 | 3 | 0.684
FAM120AOS | 1 | -0.781
FAM120AOS | 2 | 4.27
FAM120AOS | 3 | -0.321
CDH24 | 1 | -0.716
CDH24 | 2 | -1.35
CDH24 | 3 | -1.85
TEX56P | 1 | -0.408
TEX56P | 2 | -0.575
TEX56P | 3 | 0.327
ANKRD45 | 1 | -0.375
ANKRD45 | 2 | -0.795
ANKRD45 | 3 | 2.36
RIPK1 | 1 | -0.575
RIPK1 | 2 | -1.01
RIPK1 | 3 | -0.784
PRRC2C | 1 | -1.27
PRRC2C | 2 | -0.235
PRRC2C | 3 | -0.839
